The text below walks through data of doi:10.1101/2020.10.06.327742 (bioRxiv, 2020).

No constants are given. Whether binding was seen depends on the method and setting.

For this assay, the target named is T1, FITC-labelled ACE2 peptide with the predicted PTB binding motif (FITC-…-NH2) (human).
T1 sequence (peptide, FITC on the N-terminus; C-terminal amide (NH2)): SKGENNPGFQNT
As to the kind of experiment: fluorescence polarisation. A general note: In fluorescence polarisation assays a small probe gives low polarisation when free and higher when bound to something large.

Turning to DOK1 PTB domain (domain or fragment), the binding entry is on record as “no binding”.
